Primary screen of a compound library

Sequences of proteins named here, by UniProt entry; tags and fusion partners are left off.
UniProt E9BF75, entry or part of it: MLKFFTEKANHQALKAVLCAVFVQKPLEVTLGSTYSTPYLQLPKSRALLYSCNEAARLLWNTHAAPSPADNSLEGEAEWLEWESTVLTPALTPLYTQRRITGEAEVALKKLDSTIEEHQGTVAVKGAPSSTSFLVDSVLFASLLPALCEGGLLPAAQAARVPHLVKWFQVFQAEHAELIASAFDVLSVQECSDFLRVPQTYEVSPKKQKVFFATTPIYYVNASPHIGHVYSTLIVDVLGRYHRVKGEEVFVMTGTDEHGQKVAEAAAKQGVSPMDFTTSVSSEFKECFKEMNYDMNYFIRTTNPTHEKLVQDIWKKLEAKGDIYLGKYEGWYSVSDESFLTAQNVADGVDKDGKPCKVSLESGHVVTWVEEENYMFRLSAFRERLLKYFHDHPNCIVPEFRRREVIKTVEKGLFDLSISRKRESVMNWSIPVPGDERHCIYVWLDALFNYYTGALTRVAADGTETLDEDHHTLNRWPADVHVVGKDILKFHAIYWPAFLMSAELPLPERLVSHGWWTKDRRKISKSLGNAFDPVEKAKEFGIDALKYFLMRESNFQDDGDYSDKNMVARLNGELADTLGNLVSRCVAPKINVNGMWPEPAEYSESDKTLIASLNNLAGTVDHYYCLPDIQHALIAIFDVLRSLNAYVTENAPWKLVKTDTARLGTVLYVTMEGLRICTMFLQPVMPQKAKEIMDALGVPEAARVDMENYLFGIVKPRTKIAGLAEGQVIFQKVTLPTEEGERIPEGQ

Source: ChEMBL document CHEMBL3988442, “University of Dundee, Small-Polar-MMV Screening Library” (2021).

Mtb heat-shock: 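Assay on Mycobacterium tuberculosis, filed only as a heat shock assay from Cornell; the read-out is not stated. The concentration is filed as 10 mM, unlikely as a test dose, so the dose is not known. Higher reads as stronger inhibition (inferred: compounds with an IC50 in retests scored well above the rest). Size under these conditions: about 69,000 compounds, about 930 of them at 50% or above in at least one test.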
Mtb growth Cornell: 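Whole-cell assay for inhibitors of Mycobacterium tuberculosis growth, labelled Cornell in the record; the read-out is not stated. The concentration is filed as 10 mM, unlikely as a test dose, so the dose is not known. Higher means stronger inhibition (inferred from two other growth screens of the library). Of about 53,000 compounds tested this way, about 900 (1.7%) reached 50% or more in at least one test.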
LdMetRS: 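Primary screen of methionyl-tRNA synthetase; the read-out is not stated. Target: Methionyl-tRNA synthetase (putative), Leishmania donovani (UniProt E9BF75). The test concentration is not given. The values are filed as inhibition. Size under these conditions: about 68,000 compounds, about 24 of them at 50% or above in at least one test.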

Results are percentages, as filed. The record does not define 0% and 100%; most values in the screen are far below 50% and negative numbers occur (in some assays of this library far below -100). This is an unselected part of the compounds tested. A dash means the value is not listed here; it may have been measured.

Compound	Mtb heat-shock	Mtb growth Cornell	LdMetRS
Cn1ccnc1-c1nccn1C[C@@H]1CCCN2CCCC[C@H]12	-	-	6.4
Cc1nc(CN2CCC3(CCN(Cc4cnn(C)c4)CC3)C2=O)cs1.O=C(O)C(F)(F)F.O=C(O)C(F)(F)F	-23.06	-15.43	-
Cc1ccc(CN2Cc3c(C(=O)N4CCCC4)nn(C)c3C2)s1.O=C(O)C(F)(F)F	-29.21	-51.89	-
CCCC1CCCN(C(=O)CCn2cccn2)CC1 (stereo not drawn)	9.22	-	7.302
COc1ccccc1OCc1cc(C(=O)N2CCN[C@H](C)C2)n[nH]1	-1.019	-	14.13
COCC(=O)N1CCCN(Cc2c(C)nc3ccc(Cl)cn23)CC1	8.353	-	6.684
CCCNC(=O)Cn1c(C)nn(C(C)(C)C)c1=O	11.09	-7.881	6.452
O=C(O)C(F)(F)F.O=C(c1ncccn1)N1CCC2(CC1)COC(COc1ccccn1)C2 (stereo not drawn)	-42.8	17.33	-
O=C(NCCc1c[nH]cn1)c1ccc(S(=O)(=O)NC2CCCC2)cc1	8.16	-8.851	7.886
c1cc(-c2ccc3c(c2)C2(CC3)CCN(c3nncs3)CC2)ccn1	15.82	26.32	22.5
Cn1nccc1CCC(=O)N1CCCC(Cc2cccnc2)C1 (stereo not drawn)	-18.56	-	11.06
Cc1cccc(CN2C[C@@H]3CN(C(=O)c4cnoc4C)C[C@@H]3C2=O)n1	-	-	10.64
CC1CCN(c2ncc3c(n2)CN(C2CCS(=O)(=O)C2)C3=O)CC1 (stereo not drawn)	-20.34	-41.2	22.08
COc1ccc(NC(=O)Cn2nc(C)c(C)cc2=O)cc1OC	2.159	-	6.884
O=C1CC(NCc2ccncc2)CN1Cc1cccc(F)c1 (stereo not drawn)	-3.493	-	9.783
Cc1ccc(C(NC(=O)[C@H]2CC[C@@H](O)CC2)c2cccnc2)cc1C (stereo partly drawn)	-4.047	11.22	16.59
O=c1c2sccc2ncn1Cc1cc(C2CC2)[nH]n1	3.874	-	15.4
CCc1nccn1-c1cccc(C2CCCN2)n1.Cl.Cl (stereo not drawn)	8.16	25.39	-
Cn1cccc1C(=O)N1CCn2nnc(COc3cccnc3)c2C1	-	-	5.333
Cc1nc2ccccc2nc1NCc1nnc2n1CCC2	-13.5	-	-
Cc1nc(C)n(CC2CCCCN2CCCO)n1 (stereo not drawn)	-11.73	-1.767	8.361
Cc1ccn(-c2ccnc(N3CCSCC3)n2)n1	-42.37	20.72	20.96
O=C(O)C(F)(F)F.[H][C@@]12OCCN(S(=O)(=O)C3CC3)[C@@]1([H])CC[C@H]2Oc1cccnc1	-1.953	-35.1	-
OC1CN(c2nc3c(C(F)(F)F)cccc3s2)C1	-16.61	-37.29	5.915
COc1ccc(CNC(=O)N2CCOCC2C2CC2)c(C)c1 (stereo not drawn)	-0.5498	-33	2.892
O=C(O)C(F)(F)F.[H][C@@]12COC[C@]1(CNC(=O)C1CCC1)CN(Cc1ccccc1C)C2	17.62	17.79	-
CC(C)N1CCCn2c(nc(CNC(=O)c3nccn3C)cc2=O)C1.O=C(O)C(F)(F)F.O=C(O)C(F)(F)F	-5.45	-16.65	-
CC(c1nc(C2CC2)no1)N1CCN(CCCN2CCCC2=O)CC1 (stereo not drawn)	-7.886	15.94	9.444
Cc1noc(C)c1CNCc1c(C(C)C)nn(C)c1N1CCOCC1	16.51	17.88	12.72
O=C(NCC1CCOCC1)c1cc(-c2cccnc2)c2cnccc2n1	4.018	6.348	9.206
CCc1nc(CN2CCCN(C(=O)c3c(C)noc3C)CC2)cs1	34.88	6.448	12.27
CS(=O)(=O)NC1CCN(C(=O)c2[nH]c3ccc(Cl)cc3c2Cl)CC1	-2.871	-16.76	15.92
CC(=O)N1CCC2(CCCN(S(=O)(=O)c3ccc(F)cc3)C2)C1 (stereo not drawn)	-0.9231	5.757	13.45
CCN(CC1CN(Cc2ccn(C(C)C)n2)CCO1)c1cccnn1 (stereo not drawn)	-39.3	17.54	-3.183
CC(C)c1nc(CN2CCN(C(C)c3nc(C4CC4)no3)CC2)no1 (stereo not drawn)	-4.142	-	7.639
CCn1nc(CNC(=O)C2CC(=O)N(C3CCCC3)C2)c2ccccc21 (stereo not drawn)	-16.77	-	9.058
CCC1(CO)CCCN(C(=O)c2cc(COc3ccccc3F)[nH]n2)C1 (stereo not drawn)	-13.81	-9.718	24.93
CCCc1nc(CN(CC)C(=O)c2ccc(OC)c(OC)c2)no1	4.191	-5.786	14.24
CC(=O)N1CCN(c2cc(CCN)nc(C3CC3)n2)CC1	-	-	9.375
CCC(C(=O)Nc1ccc2cn(CC)nc2c1)N1CCCC1=O (stereo not drawn)	12.49	13.02	19.7
O=C(O)C(F)(F)F.[H][C@@]12CCCO[C@]1([H])[C@H](N(C)C)CN2C(=O)Cc1cccs1	4.496	1.198	-
CCc1nc(CNC2CCN(S(C)(=O)=O)CC2)cs1	8.59	-	6.599
Cc1cc2cc(C(=O)N[C@@H]3CC[C@@H](N4CCNC(=O)C4)[C@@H]3O)ccc2o1	-7.016	-	10.12
O=C(NCc1cc(O)ncn1)C1COc2ccccc2C1 (stereo not drawn)	6.011	15.21	11.85
CC(C)(C)C(=O)Cn1nc(C2CC2)cc(C(F)(F)F)c1=O	-8.291	15.35	10.14

3 of the entries, repeated:

| Compound | Mtb heat-shock | Mtb growth Cornell | LdMetRS |
|---|---|---|---|
| `COc1ccc(CNC(=O)N2CCOCC2C2CC2)c(C)c1` (stereo not drawn) | -0.5498 | -33 | 2.892 |
| `CCCc1nc(CN(CC)C(=O)c2ccc(OC)c(OC)c2)no1` | 4.191 | -5.786 | 14.24 |
| `Cc1noc(C)c1CNCc1c(C(C)C)nn(C)c1N1CCOCC1` | 16.51 | 17.88 | 12.72 |